Laboratory results from paper PMC7904762.

Sequences of proteins named here, by UniProt entry; tags and fusion partners are left off. A change or cut given only in a name is not applied to a line headed by its entry.
UniProt Q6WKZ4: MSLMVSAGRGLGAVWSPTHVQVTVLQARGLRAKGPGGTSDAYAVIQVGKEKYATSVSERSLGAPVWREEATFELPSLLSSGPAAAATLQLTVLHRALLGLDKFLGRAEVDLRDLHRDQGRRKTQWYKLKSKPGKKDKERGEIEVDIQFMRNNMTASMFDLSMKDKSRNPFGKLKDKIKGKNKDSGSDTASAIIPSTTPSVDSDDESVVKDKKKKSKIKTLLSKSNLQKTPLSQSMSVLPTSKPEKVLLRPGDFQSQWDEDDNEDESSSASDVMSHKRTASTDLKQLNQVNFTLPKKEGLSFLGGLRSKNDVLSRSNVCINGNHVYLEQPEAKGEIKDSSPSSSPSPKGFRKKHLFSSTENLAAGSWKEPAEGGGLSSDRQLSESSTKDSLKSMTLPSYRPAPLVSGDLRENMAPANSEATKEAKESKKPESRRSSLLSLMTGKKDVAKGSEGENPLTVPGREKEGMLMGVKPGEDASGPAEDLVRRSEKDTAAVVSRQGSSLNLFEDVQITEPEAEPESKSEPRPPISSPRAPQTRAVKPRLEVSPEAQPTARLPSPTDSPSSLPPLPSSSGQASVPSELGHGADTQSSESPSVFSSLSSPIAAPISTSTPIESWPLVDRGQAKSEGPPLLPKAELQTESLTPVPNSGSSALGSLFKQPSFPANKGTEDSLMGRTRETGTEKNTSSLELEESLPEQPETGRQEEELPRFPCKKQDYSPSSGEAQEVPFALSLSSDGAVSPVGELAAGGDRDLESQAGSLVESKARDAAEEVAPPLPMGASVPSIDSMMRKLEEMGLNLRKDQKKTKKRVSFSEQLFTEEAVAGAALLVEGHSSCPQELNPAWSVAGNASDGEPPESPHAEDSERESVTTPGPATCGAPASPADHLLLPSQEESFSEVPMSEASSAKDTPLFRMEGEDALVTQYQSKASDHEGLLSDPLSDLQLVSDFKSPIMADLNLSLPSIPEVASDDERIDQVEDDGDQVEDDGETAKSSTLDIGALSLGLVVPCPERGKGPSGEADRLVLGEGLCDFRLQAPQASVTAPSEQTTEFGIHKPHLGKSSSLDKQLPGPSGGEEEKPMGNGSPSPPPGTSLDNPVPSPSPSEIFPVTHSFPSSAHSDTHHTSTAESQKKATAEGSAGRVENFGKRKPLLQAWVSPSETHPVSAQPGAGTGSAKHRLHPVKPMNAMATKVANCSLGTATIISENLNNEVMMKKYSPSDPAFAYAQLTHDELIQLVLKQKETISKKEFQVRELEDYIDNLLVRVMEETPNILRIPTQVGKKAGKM
UniProt P08183: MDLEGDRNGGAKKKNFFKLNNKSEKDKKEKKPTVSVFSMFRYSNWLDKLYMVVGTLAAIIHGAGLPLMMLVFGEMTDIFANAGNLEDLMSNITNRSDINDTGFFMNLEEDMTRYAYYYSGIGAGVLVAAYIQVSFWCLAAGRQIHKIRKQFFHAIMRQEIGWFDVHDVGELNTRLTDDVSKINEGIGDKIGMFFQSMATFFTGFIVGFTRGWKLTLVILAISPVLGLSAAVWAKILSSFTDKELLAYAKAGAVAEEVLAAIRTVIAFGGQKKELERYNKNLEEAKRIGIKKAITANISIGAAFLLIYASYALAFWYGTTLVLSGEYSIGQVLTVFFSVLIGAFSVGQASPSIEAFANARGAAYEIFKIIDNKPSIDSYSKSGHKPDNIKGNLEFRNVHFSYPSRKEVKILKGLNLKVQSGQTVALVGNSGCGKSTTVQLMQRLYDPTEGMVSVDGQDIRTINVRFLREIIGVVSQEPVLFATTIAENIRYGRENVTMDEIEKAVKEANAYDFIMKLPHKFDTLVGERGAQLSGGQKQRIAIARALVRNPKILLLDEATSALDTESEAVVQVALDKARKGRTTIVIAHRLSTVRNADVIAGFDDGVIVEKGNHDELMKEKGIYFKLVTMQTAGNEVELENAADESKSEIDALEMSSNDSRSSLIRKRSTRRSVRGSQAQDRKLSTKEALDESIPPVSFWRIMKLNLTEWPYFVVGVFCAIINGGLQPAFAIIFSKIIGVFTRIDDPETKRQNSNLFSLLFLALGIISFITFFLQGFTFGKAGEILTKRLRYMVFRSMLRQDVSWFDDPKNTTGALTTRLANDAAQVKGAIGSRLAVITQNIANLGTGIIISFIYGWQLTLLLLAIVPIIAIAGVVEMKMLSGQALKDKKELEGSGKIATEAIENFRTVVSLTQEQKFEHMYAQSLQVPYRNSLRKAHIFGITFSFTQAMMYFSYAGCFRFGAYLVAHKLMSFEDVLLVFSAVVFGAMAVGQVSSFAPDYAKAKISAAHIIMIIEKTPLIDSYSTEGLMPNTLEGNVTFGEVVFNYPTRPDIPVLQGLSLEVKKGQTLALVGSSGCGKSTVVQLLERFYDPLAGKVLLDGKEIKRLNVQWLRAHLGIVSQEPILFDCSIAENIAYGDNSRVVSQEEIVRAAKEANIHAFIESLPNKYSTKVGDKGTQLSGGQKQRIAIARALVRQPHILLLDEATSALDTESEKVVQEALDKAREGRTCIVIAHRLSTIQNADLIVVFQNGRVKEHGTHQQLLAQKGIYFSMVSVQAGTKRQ

Biological target: GFP-RCP (GFP-tagged Rab-coupling protein) (UniProt Q6WKZ4)
Assay: co-IP; GFP or GFP-RCP transfected into H1299 cells stably expressing mutant p53 R273H or empty vector; lysates immunoprecipitated with anti-GFP; P-gp detected by western blot

## P-glycoprotein (from UniProt P08183 1-1280)
  binding: binds

These are yes or no findings as the source states them, for the method shown. In cells and extracts the contact can be indirect. A result given as binding can be weak or reduced; the word gives no strength.
